Holding throughout (conditions): 30, 20, 15, 10 μM methadone, 24 h and 48 h
One data set relates to HL-60 cells.
Data set [1] relates to peripheral blood lymphocytes (PBLs).
Another data set relates to CEM cells.

Where a name gives a salt, the structure may show the parent alone.

`CCC(=O)C(CC(C)N(C)C)(c1ccccc1)c1ccccc1` (racemic) [methadone, D, L-methadone hydrochloride]: the inhibition of growth result in the data set with HL-60 cells and in the data set on CEM cells was “strong inhibition of growth” in each case. Besides, the “killing of non-leukaemic PBLs” value in data set [1] was “could not kill PBLs”.

(Values after patent US8901175B2 (priority 2008, dated 2014).)
